Measured data: PubChem BioAssay AID1259308 (NCATS, 2017)

Aim: 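Knock-downs that increase output of a recombinant reporter protein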 (primary screen)
Cells: human HEK293 embryonic kidney cells stably expressing firefly luciferase (HEK-CMV-Luc2-Hygro)
Knock-down reagent: single siRNA against human genes, 0.8 pmol siRNA per well
Duration: 72 h
Measured: 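Luciferase light (ONE-Glo) measured on one replicate plate set and viability (CellTiter-Glo) on the other, scaled to a negative control siRNA, with robust z-scores and luciferase per cell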
Direction: total luciferase, z-score and total luciferase, % of control: higher = more reporter protein produced
Active means: 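An siRNA counts as active if its total luciferase robust z-score exceeds 3; genes with two or more such siRNAs out of three were retested with fresh siRNAs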
Meaning of the calls: active = raised luciferase; inactive = no rise
The deposit covers about 59,000 reagents; shown is a random part of them. About 1,510 of all reagents (2.6%) count as active. 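Calls use total luciferase alone and ignore viability, so some active siRNAs may act by altering cell number.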 Reagents against one gene are numbered here. Not all columns of the deposit are shown.

The first 4 records, ahead of the listing:
target,reagent,"total luciferase, z-score","total luciferase, % of control",Outcome
PRORP (protein only RNase P catalytic subunit),1,-0.0188,81.5,inactive
PRORP (protein only RNase P catalytic subunit),2,0.82,98.2,inactive
PRORP (protein only RNase P catalytic subunit),3,0.778,97.4,inactive
ADAM18 (ADAM metallopeptidase domain 18),1,-1.08,60.5,inactive

Results, from the first entry:
target,reagent,"total luciferase, z-score","total luciferase, % of control",Outcome
PRORP (protein only RNase P catalytic subunit),1,-0.0188,81.5,inactive
PRORP (protein only RNase P catalytic subunit),2,0.82,98.2,inactive
PRORP (protein only RNase P catalytic subunit),3,0.778,97.4,inactive
ADAM18 (ADAM metallopeptidase domain 18),1,-1.08,60.5,inactive
ADAM18 (ADAM metallopeptidase domain 18),2,0.335,88.5,inactive
ADAM18 (ADAM metallopeptidase domain 18),3,-0.611,69.7,inactive
RNF14 (ring finger protein 14),1,-0.444,73.1,inactive
RNF14 (ring finger protein 14),2,-1.28,56.5,inactive
RNF14 (ring finger protein 14),3,-0.623,69.5,inactive
MAGEF1 (MAGE family member F1),1,-2.6,30.1,inactive
MAGEF1 (MAGE family member F1),2,-0.883,64.3,inactive
MAGEF1 (MAGE family member F1),3,-0.475,72.4,inactive
PKIA (cAMP-dependent protein kinase inhibitor alpha),1,2.15,125,inactive
PKIA (cAMP-dependent protein kinase inhibitor alpha),2,2.64,134,inactive
PKIA (cAMP-dependent protein kinase inhibitor alpha),3,-0.589,70.2,inactive
PCTP (phosphatidylcholine transfer protein),1,0.77,97.2,inactive
PCTP (phosphatidylcholine transfer protein),2,1.04,103,inactive
PCTP (phosphatidylcholine transfer protein),3,0.474,91.3,inactive
NR6A1 (nuclear receptor subfamily 6 group A member 1),1,0.757,96.9,inactive
NR6A1 (nuclear receptor subfamily 6 group A member 1),2,0.232,86.5,inactive
NR6A1 (nuclear receptor subfamily 6 group A member 1),3,-0.223,77.5,inactive
ATL2 (atlastin GTPase 2),1,0.585,93.5,inactive
ATL2 (atlastin GTPase 2),2,-0.361,74.7,inactive
ATL2 (atlastin GTPase 2),3,-0.269,76.5,inactive
NCBP1 (nuclear cap binding protein subunit 1),1,0.697,95.8,inactive
NCBP1 (nuclear cap binding protein subunit 1),2,0.654,94.9,inactive
NCBP1 (nuclear cap binding protein subunit 1),3,-0.554,70.9,inactive
RUNX2 (RUNX family transcription factor 2),1,-0.97,62.6,inactive
RUNX2 (RUNX family transcription factor 2),2,0.921,100,inactive
RUNX2 (RUNX family transcription factor 2),3,-0.6,70,inactive
TMSB4Y (thymosin beta 4 Y-linked),1,-1.27,56.6,inactive
TMSB4Y (thymosin beta 4 Y-linked),2,2.29,127,inactive
TMSB4Y (thymosin beta 4 Y-linked),3,1.33,108,inactive
SPOCK1,1,-0.0504,80.9,inactive
SPOCK1,2,-0.127,79.4,inactive
SPOCK1,3,-0.896,64.1,inactive
RNF213 (ring finger protein 213),1,-0.0294,81.3,inactive
RNF213 (ring finger protein 213),2,-0.0555,80.8,inactive
RNF213 (ring finger protein 213),3,-0.282,76.3,inactive
RNF213 (ring finger protein 213),4,0.382,89.5,inactive
RNF213 (ring finger protein 213),5,-1.95,43,inactive
RNF213 (ring finger protein 213),6,2.47,131,inactive
C11orf86 (chromosome 11 open reading frame 86),1,-1.75,47.1,inactive
C11orf86 (chromosome 11 open reading frame 86),2,0.0344,82.6,inactive
C11orf86 (chromosome 11 open reading frame 86),3,0.292,87.7,inactive
SLC5A1,1,0.184,85.5,inactive
SLC5A1,2,-0.213,77.7,inactive
SLC5A1,3,2.63,134,inactive
TMEM132A (transmembrane protein 132A),1,2.22,126,inactive
TMEM132A (transmembrane protein 132A),2,-0.181,78.3,inactive
TMEM132A (transmembrane protein 132A),3,-0.512,71.7,inactive
AQP11 (aquaporin 11),1,-1.92,43.7,inactive
AQP11 (aquaporin 11),2,-1.47,52.7,inactive
AQP11 (aquaporin 11),3,-1.72,47.7,inactive
TOP1MT (DNA topoisomerase I mitochondrial),1,0.0506,82.9,inactive
TOP1MT (DNA topoisomerase I mitochondrial),2,-0.0613,80.7,inactive
TOP1MT (DNA topoisomerase I mitochondrial),3,-0.13,79.3,inactive
